The target of one assay is Flag-tagged human MLC1 (human, UniProt Q15049). Nature of the assay: oligomer bands on a western blot. (In general: In western blotting, separated proteins are transferred to a membrane and probed.)
The next assay concerns the target Flag-tagged mouse MLC1 (mouse, UniProt Q8VHK5). Put plainly: oligomer bands on a western blot.

No constants are given. Whether binding was seen depends on the method and setting. Some binding calls cover weakened binding; strength is not graded here. Sequences can lack the tags named with a protein.

B1: Flag-tagged human MLC1 (protein, UniProt Q15049 1-377)
chain: MTQEPFREELAYDRMPTLERGRQDPASYAPDAKPSDLQLSKRLPPCFSHKTWVFSVLMGSCLLVTSGFSLYLGNVFPAEMDYLRCAAGSCIPSAIVSFTVSRRNANVIPNFQILFVSTFAVTTTCLIWFGCKLVLNPSAININFNLILLLLLELLMAATVIIAARSSEEDCKKKKGSMSDSANILDEVPFPARVLKSYSVVEVIAGISAVLGGIIALNVDDSVSGPHLSVTFFWILVACFPSAIASHVAAECPSKCLVEVLIAISSLTSPLLFTASGYLSFSIMRIVEMFKDYPPAIKPSYDVLLLLLLLVLLLQAGLNTGTAIQCVRFKVSARLQGASWDTQNGPQERLAGEVARSPLKEFDKEKAWRAVVVQMAQ
For the molecule B1, the binding entry with Flag-tagged human MLC1 is given as “binds”.

B2: Flag-tagged mouse MLC1 (protein, UniProt Q8VHK5 1-382)
chain: MTREGQFREELGYDRMPTLERGRQDAGRQDPGSYTPDSKPKDLQLSKRLPPCFSYKTWVFSVLMGSCLLVTSGFSLYLGNVFPSEMDYLRCAAGSCIPSAIVSFAVGRRNVSAIPNFQILFVSTFAVTTTCLIWFGCKLILNPSAININFNLILLLLLELLMAATVIISARSSEEPCKKKKGSISDGSNILDEVTFPARVLKSYSVVEVIAGVSAVLGGVIALNVEEAVSGPHLSVTFFWILVACFPSAIASHVTAECPSKCLVEVLIAISSLTSPLLFTASGYLSFSVMRVVEIFKDYPPAIKSYDVLLLLLLLLLLLQGGLNTGTAIQCVSFKVSARLQAASWDPQSCPQERPAGEVVRGPLKEFDKEKAWRAVVVQMAQ
For B2, the binding entry in the assay with Flag-tagged mouse MLC1 is given as “binds”.

The values are drawn from paper doi:10.1101/2025.10.08.681078 (bioRxiv, 2025).
